From PubChem BioAssay AID602313 (National Center for Advancing Translational Sciences (NCATS), 2012)
Among all 390,000 compounds or so, about 760 (0.19%) were called active. The shares of active, inactive and inconclusive entries below differ from those in the screen. Calls come from the whole dose curve; as a rule, active = well fitted inhibition curve with a large enough effect; inconclusive = small, poorly fitted or top-dose-only effect; inactive = flat fitted curve, though single readings scatter. Potencies beside an inconclusive call are fits to weak or partial responses and may not hold up.

experiment: qHTS for Inhibitors of Vif-A3F Interactions: qHTS; details: HeLa A3F-eYFP + Vif (tagged APOBEC3F with the HIV-1 protein that degrades it), YFP fluorescence increase; series mostly up to 46.1 µM; activity, negative = active: at the top concentration; note: nearly all actives have a fitted effect of over 65% in size; for activity, negative = active: % of control where 0% means no effect
Outline: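 Fluorescence increase (Ex 488/Em 500-530) after overnight compound treatment at 37 deg C flags inhibition of Vif-driven A3F-eYFP loss in stable HeLa A3F-eYFP/Vif cells seeded overnight beforehand.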
Potency is the fitted concentration of half-maximal effect.

Compound	Potency	activity, negative = active
O=C(CCS(=O)(=O)c1ccccc1)Nc1ccc2c(c1)OCO2	inconclusive: 35.5 µM [inhibitor, single point]	–
COc1ccc(OC)c(-n2c(-c3cccc(O)c3)n[nH]c2=S)c1	–	inactive: -1.04%
O=C(CN(C(=O)CCC(=O)Nc1nccs1)c1cccc(F)c1)NCCc1ccccc1	inconclusive: 35.5 µM [inhibitor, single point]	–
O=C(Cn1c2ccc(F)cc2c2nc3n(c(=O)c21)CCS3)Nc1ccc(Cl)cc1F	inconclusive: 35.5 µM [inhibitor, single point]	–
CN(C(=O)COc1ccc(Cl)cc1Cl)C1(C)CCS(=O)(=O)C1 (stereo not drawn)	inconclusive: 6.31 µM [inhibitor, single point]	–
COc1ccc(C(=O)Oc2cccc(/C=N/NC(N)=S)c2)cc1	inconclusive: 35.5 µM [inhibitor, single point]	–
O=C(CN1C(=O)S/C(=C\c2ccccc2F)C1=O)Nc1ccccc1O	inconclusive: 25.1 µM [inhibitor, single point]	–
COc1cc(C(=O)NC2CCN(C)CC2)ccc1Nc1ncc2c(n1)N(C1CCCCC1)CCC(=O)N2C	inconclusive: 15.8 µM [inhibitor, single point]	–
Clc1ccccc1N1CCN(c2ncnc3c2c(-c2ccccc2)cn3-c2ccccc2)CC1	–	inactive: -4.44%
COc1ccccc1NC(=O)CSc1n[nH]c(-c2cccnc2)n1	inconclusive: 6.31 µM [inhibitor, single point]	–
O=C(Nc1ccccc1F)c1nc(S(=O)(=O)Cc2ccccc2F)ncc1Cl	–	inactive: 2.49%
CC(C)(C)NNC(=S)Nc1cccc(C(F)(F)F)c1	inconclusive: 3.16 µM [inhibitor, partial curve, poor fit]	–
COCCCNC(=O)c1ccc(CSc2nc3cccnc3n2Cc2ccc(OC)cc2)cc1	inconclusive: 5.62 µM [inhibitor, single point]	–
O=[N+]([O-])c1cccnc1N1CCC(c2cc(-c3ccc(Cl)cc3Cl)n[nH]2)CC1	inconclusive: 22.4 µM [inhibitor, single point]	–
Cc1ccc2c(c1)N(CC(=O)NC1CCCC1)C(=O)C(C)O2 (stereo not drawn)	inconclusive: 3.16 µM [inhibitor, single point]	–
COc1cc2cc(C(=O)N3CCN(c4ccccc4OC)CC3)[nH]c2cc1OC	inconclusive: 35.5 µM [inhibitor, single point]	–
Fc1ccc(/C=N/NC(=S)Nc2cccnc2)cc1F	inconclusive: 8.91 µM [inhibitor, partial curve]	–
Brc1ccc(Cn2c(-c3ccc(Br)o3)nc3ccccc32)o1	inconclusive: 20 µM [inhibitor, single point]	–
NC(=O)CC(NC(=O)c1ccccc1)c1ccc(NCCc2cccc(F)c2)c([N+](=O)[O-])c1 (stereo not drawn)	inconclusive: 25.1 µM [inhibitor, single point]	–
COc1ccc(CCC(C)NCCc2ccc(Cl)cc2Cl)cc1 (stereo not drawn)	–	inactive: -29.2%
CC1CCCCN1S(=O)(=O)c1csc(C(N)=O)c1 (stereo not drawn)	–	inactive: -0.693%
COc1cccc(CNC(=O)CSc2nnc3c(n2)[nH]c2ccc(F)cc23)c1	inconclusive: 5.62 µM [inhibitor, single point]	–

Compound	Potency	activity, negative = active
O=[N+]([O-])c1ccc(-c2ccc(/C=N/Nc3nc(NCc4ccccc4)nc(N4CCOCC4)n3)o2)cc1	inconclusive: 3.16 µM [inhibitor, full curve, poor fit]	–
Cc1ccc(CCSc2ccc(C(C)C)cc2)cn1	–	inactive: -14.6%
c1ccc(CNc2nc(-c3ccccc3)nc3ccccc23)cc1	inconclusive: 11.2 µM [inhibitor, partial curve, poor fit]	–
COc1ccc(C(=O)Cn2nc(CNc3ccc(Br)cc3)[n+]3c2CCCCC3)cc1	–	inactive: 1.29%
CNC(=S)N/N=C/c1cccc(OCc2ccccc2F)c1	inconclusive: 12.6 µM [inhibitor, partial curve, poor fit]	–
CCn1c(C)cc(C)c(C#N)c1=O	inconclusive: 6.31 µM [inhibitor, single point]	–
CCCCN1C(=S)NC[C@@H]1c1ccccc1	inconclusive: 25.1 µM [inhibitor, single point]	–
O=C(Cc1nc2ccccc2[nH]c1=O)c1ccc(Cl)cc1	active: 12.6 µM	–
O=C1CC(c2cc(F)ccc2F)c2cc3c(cc2N1)CCC3 (stereo not drawn)	inconclusive: 3.55 µM [inhibitor, full curve, poor fit]	–
COc1cc(N=Nc2ccc(Br)cc2)cc(C=O)c1O	–	inactive: 1.9%
COC(=O)C(C(C)=O)C1=C/C(=N\S(=O)(=O)c2ccc(C)cc2)c2ccccc2C1=O (stereo not drawn)	inconclusive: 11.2 µM [inhibitor, partial curve, poor fit]	–
CCOC(=O)Nc1ccc2c3c(cccc13)-c1ccccc1-2	active: 3.55 µM	–
N#Cc1sc2nc(-c3cccs3)cc(-c3ccccc3)c2c1N	inconclusive: 22.4 µM [inhibitor, single point]	–
COc1ccc(N2CCN(C(=O)COC(=O)CCOc3cc(C)ccc3C)CC2)cc1	inconclusive: 0.891 µM [inhibitor, full curve, poor fit]	–
Cc1ccc(-c2nnn(CC(=O)N(c3cnc4ccccc4c3)C(C(=O)NC3CCCC3)c3ccncc3)n2)o1 (stereo not drawn)	inconclusive: 35.5 µM [inhibitor, single point]	–
CCOC(=O)c1cc2c(=O)n3cccc(C)c3nc2n(CCOC)c1=NC(C)=O	inconclusive: 12.6 µM [inhibitor, partial curve, poor fit]	–
CSc1ccccc1OCc1cc(C(=O)N(C)Cc2nonc2C)no1	inconclusive: 20 µM [inhibitor, partial curve, poor fit]	–
CCC(O)(CC)C(=O)NN(C(=O)CCl)c1ccccc1	–	inactive: -1.38%
Brc1ccc(C2=CC(c3ccco3)n3ncnc3N2)cc1 (stereo not drawn)	inconclusive: 35.5 µM [inhibitor, single point]	–
NNC(=S)Nc1c(F)cc(F)cc1Br	active: 11.2 µM	–
C/C(=N\Nc1ccccn1)c1ccc(Br)s1	inconclusive: 22.4 µM [inhibitor, single point]	–
